The target in the assay is Endogenous pVHL (human (endogenous in MHCC-LM3)) (UniProt P40337). In words: co-IP; endogenous proteins, MHCC-LM3 cells with NC or OTUD6B knockdown, treated with MG132 for 8 h, immunoprecipitation with control IgG or anti-pVHL antibodies.

By UniProt entry, the sequences of proteins in these tests, tags left out.
UniProt P40337: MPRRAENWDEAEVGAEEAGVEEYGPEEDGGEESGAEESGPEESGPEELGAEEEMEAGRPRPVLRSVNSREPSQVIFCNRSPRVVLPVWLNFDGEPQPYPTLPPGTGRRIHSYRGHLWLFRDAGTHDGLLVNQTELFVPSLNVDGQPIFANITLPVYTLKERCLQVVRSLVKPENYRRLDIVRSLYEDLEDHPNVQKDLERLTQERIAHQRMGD

Results are given in words; binding and its absence hold for the method and conditions named. In cells and extracts the contact can be indirect. Some entries that bind do so weakly or less than the wild type.

B1: Trp Asp repeat and suppressors of cytokine signaling box-containing protein 1 (WSB1) (enzyme, UniProt Q9Y6I7 1-421)
chain: MASFPPRVNEKEIVRLRTIGELLAPAAPFDKKCGRENWTVAFAPDGSYFAWSQGHRTVKLVPWSQCLQNFLLHGTKNVTNSSSLRLPRQNSDGGQKNKPREHIIDCGDIVWSLAFGSSVPEKQSRCVNIEWHRFRFGQDQLLLATGLNNGRIKIWDVYTGKLLLNLVDHTEVVRDLTFAPDGSLILVSASRDKTLRVWDLKDDGNMMKVLRGHQNWVYSCAFSPDSSMLCSVGASKAVFLWNMDKYTMIRKLEGHHHDVVACDFSPDGALLATASYDTRVYIWDPHNGDILMEFGHLFPPPTPIFAGGANDRWVRSVSFSHDGLHVASLADDKMVRFWRIDEDYPVQVAPLSNGLCCAFSTDGSVLAAGTHDGSVYFWATPRQVPSLQHLCRMSIRRVMPTQEVQELPIPSKLLEFLSYRI
For the molecule B1, the binding result is reported as “binds”.

The values are drawn from publication PMC7175249.
